Data reported in PMC4076869.
No constants are given. Whether binding was seen depends on the method and setting. Binding seen in cells or lysates may run through a third protein. Some binding calls cover weakened binding; strength is not graded here. Where a sequence is shown, tags or fusion partners need not be part of it.

By UniProt entry, the sequences of proteins in these tests, tags left out. Where a name states a change or a piece, a line headed by the entry shows the natural chain unless it says otherwise.
UniProt Q14209: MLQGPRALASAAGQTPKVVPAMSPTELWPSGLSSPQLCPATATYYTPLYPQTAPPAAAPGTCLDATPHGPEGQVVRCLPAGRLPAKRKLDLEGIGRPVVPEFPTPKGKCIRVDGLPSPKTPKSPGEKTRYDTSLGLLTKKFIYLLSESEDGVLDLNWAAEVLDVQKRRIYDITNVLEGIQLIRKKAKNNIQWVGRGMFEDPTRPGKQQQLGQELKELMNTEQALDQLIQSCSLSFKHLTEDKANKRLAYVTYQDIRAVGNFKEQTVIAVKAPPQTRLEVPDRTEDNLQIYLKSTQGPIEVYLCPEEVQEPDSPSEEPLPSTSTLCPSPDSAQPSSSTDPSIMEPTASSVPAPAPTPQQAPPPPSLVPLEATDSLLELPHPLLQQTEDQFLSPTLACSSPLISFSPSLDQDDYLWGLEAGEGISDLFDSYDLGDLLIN
UniProt O00716: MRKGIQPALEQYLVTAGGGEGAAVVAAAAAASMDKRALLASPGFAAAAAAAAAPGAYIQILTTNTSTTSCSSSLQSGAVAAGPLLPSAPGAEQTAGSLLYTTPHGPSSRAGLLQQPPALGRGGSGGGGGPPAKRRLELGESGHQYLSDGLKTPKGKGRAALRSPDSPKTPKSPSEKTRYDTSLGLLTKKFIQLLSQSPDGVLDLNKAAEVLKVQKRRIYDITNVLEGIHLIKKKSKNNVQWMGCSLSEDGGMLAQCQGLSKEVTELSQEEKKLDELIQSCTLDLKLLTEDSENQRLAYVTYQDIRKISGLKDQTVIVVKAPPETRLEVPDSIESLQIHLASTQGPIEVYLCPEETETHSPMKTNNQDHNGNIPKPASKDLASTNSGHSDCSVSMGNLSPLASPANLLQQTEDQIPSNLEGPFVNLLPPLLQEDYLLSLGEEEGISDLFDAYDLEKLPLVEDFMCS
UniProt Q16254: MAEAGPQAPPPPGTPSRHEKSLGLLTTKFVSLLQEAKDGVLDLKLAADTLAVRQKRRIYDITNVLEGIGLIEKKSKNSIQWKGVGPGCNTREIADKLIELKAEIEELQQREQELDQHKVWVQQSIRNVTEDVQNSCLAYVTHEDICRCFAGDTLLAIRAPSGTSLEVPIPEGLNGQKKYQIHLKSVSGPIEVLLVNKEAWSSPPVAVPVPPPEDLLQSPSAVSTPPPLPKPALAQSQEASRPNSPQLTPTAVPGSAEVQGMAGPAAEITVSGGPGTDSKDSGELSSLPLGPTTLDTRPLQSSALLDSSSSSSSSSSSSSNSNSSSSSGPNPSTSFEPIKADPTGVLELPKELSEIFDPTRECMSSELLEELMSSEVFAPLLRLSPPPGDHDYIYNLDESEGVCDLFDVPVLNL

Assays:
Assay in all cases: co-IP; each Rb-HA construct co-transfected into cells co-expressing E1a or a Myc-tagged E2F; E1a or the E2F immunoprecipitated, immunoblot for the associated Rb-HA
[1] = molecular target: E2F-2 transcription factor (Myc tagged) (UniProt Q14209)
[2] = molecular target: E2F-3 transcription factor (Myc tagged) (UniProt O00716)
[3] = molecular target: E2F-4 transcription factor (Myc tagged) (UniProt Q16254)

| binding [1] | binding [2] | binding [3] | Binder |
| --- | --- | --- | --- |
| binds | binds | binds | Rb-HA single Cdk site construct S780 (mono-phosphorylated Rb isoform) (protein, UniProt P06400 1-928, phosphate on S780 (mono-phosphorylated in cells)) MPPKAPRKTAATAAAAAAEPPAPPPPPPPEEDPEQDSGPEDLPLVRLEFEETEEPDFTALCQKLKIPDHVRERAWLTWEKVSSVDGVLGGYIQKKKELWGICIFIAAVDLDEMSFTFTELQKNIEISVHKFFNLLKEIDTSTKVDNAMSRLLKKYDVLFALFSKLERTCELIYLTQPSSSISTEINSALVLKVSWITFLLAKGEVLQMEDDLVISFQLMLCVLDYFIKLAPPMLLKEPYKTAVIPINGAPRAPRRGQNRSARIAKQLENDTRIIEVLCKEHECNIDEVKNVYFKNFIPFMNSLGLVTSNGLPEVENLSKRYEEIYLKNKDLDARLFLDHDKTLQTDSIDSFETQRAPRKSNLDEEVNVIPPHAPVRTVMNTIQQLMMILNSASDQPSENLISYFNNCTVNPKESILKRVKDIGYIFKEKFAKAVGQGCVEIGSQRYKLGVRLYYRVMESMLKSEEERLSIQNFSKLLNDNIFHMSLLACALEVVMATYSRSTSQNLDSGTDLSFPWILNVLNLKAFDFYKVIESFIKAEGNLTREMIKHLERCEHRIMESLAWLSDSPLFDLIKQSKDREGPTDHLESACPLNLPLQNNHTAADMYLAPVRAPKKKGSTTRVNSTANAETQATSAFQTQKPLKSTSLSLFYKKVYRLAYLRLNTLCERLLSEHPELEHIIWTLFQHTLQNEYELMRDRHLDQIMMCSMYGICKVKNIDLKFKIIVTAYKDLPHAVQETFKRVLIKEEEYDSIIVFYNSVFMQRLKTNILQYASTRPPTLSPIPHIPRAPYKFPSAPLRIPGGNIYIAPLKAPYKISEGLPAPTKMAPRSRILVSIGESFGTSEKFQKINQMVCNSDRVLKRSAEGSNPPKPLKKLRFDIEGSDEADGSKHLPGESKFQQKLAEMTSTRTRMQKQKMNDSMDTSNKEEK |
| binds | binds | binds | Rb-HA single Cdk site construct T826 (mono-phosphorylated Rb isoform) (protein, UniProt P06400 1-928, phosphate on T826 (mono-phosphorylated in cells)) MPPKAPRKTAATAAAAAAEPPAPPPPPPPEEDPEQDSGPEDLPLVRLEFEETEEPDFTALCQKLKIPDHVRERAWLTWEKVSSVDGVLGGYIQKKKELWGICIFIAAVDLDEMSFTFTELQKNIEISVHKFFNLLKEIDTSTKVDNAMSRLLKKYDVLFALFSKLERTCELIYLTQPSSSISTEINSALVLKVSWITFLLAKGEVLQMEDDLVISFQLMLCVLDYFIKLAPPMLLKEPYKTAVIPINGAPRAPRRGQNRSARIAKQLENDTRIIEVLCKEHECNIDEVKNVYFKNFIPFMNSLGLVTSNGLPEVENLSKRYEEIYLKNKDLDARLFLDHDKTLQTDSIDSFETQRAPRKSNLDEEVNVIPPHAPVRTVMNTIQQLMMILNSASDQPSENLISYFNNCTVNPKESILKRVKDIGYIFKEKFAKAVGQGCVEIGSQRYKLGVRLYYRVMESMLKSEEERLSIQNFSKLLNDNIFHMSLLACALEVVMATYSRSTSQNLDSGTDLSFPWILNVLNLKAFDFYKVIESFIKAEGNLTREMIKHLERCEHRIMESLAWLSDSPLFDLIKQSKDREGPTDHLESACPLNLPLQNNHTAADMYLAPVRAPKKKGSTTRVNSTANAETQATSAFQTQKPLKSTSLSLFYKKVYRLAYLRLNTLCERLLSEHPELEHIIWTLFQHTLQNEYELMRDRHLDQIMMCSMYGICKVKNIDLKFKIIVTAYKDLPHAVQETFKRVLIKEEEYDSIIVFYNSVFMQRLKTNILQYASTRPPTLAPIPHIPRAPYKFPSAPLRIPGGNIYIAPLKAPYKISEGLPAPTKMTPRSRILVSIGESFGTSEKFQKINQMVCNSDRVLKRSAEGSNPPKPLKKLRFDIEGSDEADGSKHLPGESKFQQKLAEMTSTRTRMQKQKMNDSMDTSNKEEK |
| binds | binds | binds | Rb-HA single Cdk site construct S788 (mono-phosphorylated Rb isoform) (protein, UniProt P06400 1-928, phosphate on S788 (mono-phosphorylated in cells)) MPPKAPRKTAATAAAAAAEPPAPPPPPPPEEDPEQDSGPEDLPLVRLEFEETEEPDFTALCQKLKIPDHVRERAWLTWEKVSSVDGVLGGYIQKKKELWGICIFIAAVDLDEMSFTFTELQKNIEISVHKFFNLLKEIDTSTKVDNAMSRLLKKYDVLFALFSKLERTCELIYLTQPSSSISTEINSALVLKVSWITFLLAKGEVLQMEDDLVISFQLMLCVLDYFIKLAPPMLLKEPYKTAVIPINGAPRAPRRGQNRSARIAKQLENDTRIIEVLCKEHECNIDEVKNVYFKNFIPFMNSLGLVTSNGLPEVENLSKRYEEIYLKNKDLDARLFLDHDKTLQTDSIDSFETQRAPRKSNLDEEVNVIPPHAPVRTVMNTIQQLMMILNSASDQPSENLISYFNNCTVNPKESILKRVKDIGYIFKEKFAKAVGQGCVEIGSQRYKLGVRLYYRVMESMLKSEEERLSIQNFSKLLNDNIFHMSLLACALEVVMATYSRSTSQNLDSGTDLSFPWILNVLNLKAFDFYKVIESFIKAEGNLTREMIKHLERCEHRIMESLAWLSDSPLFDLIKQSKDREGPTDHLESACPLNLPLQNNHTAADMYLAPVRAPKKKGSTTRVNSTANAETQATSAFQTQKPLKSTSLSLFYKKVYRLAYLRLNTLCERLLSEHPELEHIIWTLFQHTLQNEYELMRDRHLDQIMMCSMYGICKVKNIDLKFKIIVTAYKDLPHAVQETFKRVLIKEEEYDSIIVFYNSVFMQRLKTNILQYASTRPPTLAPIPHIPRSPYKFPSAPLRIPGGNIYIAPLKAPYKISEGLPAPTKMAPRSRILVSIGESFGTSEKFQKINQMVCNSDRVLKRSAEGSNPPKPLKKLRFDIEGSDEADGSKHLPGESKFQQKLAEMTSTRTRMQKQKMNDSMDTSNKEEK |
| binds | binds | binds | Rb-HA single Cdk site construct S811 (mono-phosphorylated Rb isoform) (protein, UniProt P06400 1-928, phosphate on S811 (mono-phosphorylated in cells)) MPPKAPRKTAATAAAAAAEPPAPPPPPPPEEDPEQDSGPEDLPLVRLEFEETEEPDFTALCQKLKIPDHVRERAWLTWEKVSSVDGVLGGYIQKKKELWGICIFIAAVDLDEMSFTFTELQKNIEISVHKFFNLLKEIDTSTKVDNAMSRLLKKYDVLFALFSKLERTCELIYLTQPSSSISTEINSALVLKVSWITFLLAKGEVLQMEDDLVISFQLMLCVLDYFIKLAPPMLLKEPYKTAVIPINGAPRAPRRGQNRSARIAKQLENDTRIIEVLCKEHECNIDEVKNVYFKNFIPFMNSLGLVTSNGLPEVENLSKRYEEIYLKNKDLDARLFLDHDKTLQTDSIDSFETQRAPRKSNLDEEVNVIPPHAPVRTVMNTIQQLMMILNSASDQPSENLISYFNNCTVNPKESILKRVKDIGYIFKEKFAKAVGQGCVEIGSQRYKLGVRLYYRVMESMLKSEEERLSIQNFSKLLNDNIFHMSLLACALEVVMATYSRSTSQNLDSGTDLSFPWILNVLNLKAFDFYKVIESFIKAEGNLTREMIKHLERCEHRIMESLAWLSDSPLFDLIKQSKDREGPTDHLESACPLNLPLQNNHTAADMYLAPVRAPKKKGSTTRVNSTANAETQATSAFQTQKPLKSTSLSLFYKKVYRLAYLRLNTLCERLLSEHPELEHIIWTLFQHTLQNEYELMRDRHLDQIMMCSMYGICKVKNIDLKFKIIVTAYKDLPHAVQETFKRVLIKEEEYDSIIVFYNSVFMQRLKTNILQYASTRPPTLAPIPHIPRAPYKFPSAPLRIPGGNIYIAPLKSPYKISEGLPAPTKMAPRSRILVSIGESFGTSEKFQKINQMVCNSDRVLKRSAEGSNPPKPLKKLRFDIEGSDEADGSKHLPGESKFQQKLAEMTSTRTRMQKQKMNDSMDTSNKEEK |
